Measurements from patent US4469692A, “Spiro derivatives of the pyrazolo [1,5-d] [1,2,4] triazine ring system and a process for the preparation thereof” (Alkaloida Vegyeszeti Gyar, priority 1981, dated 1984).
For at least one compound, name, drawing or mass did not settle the structure.

Tested on: rabbits
Test: Hypnotic effect in rabbits (method of Janssen et al.)
Assay type: in vivo
Settings: in a dose of 25 mg/kg
Procedure: The hypnotic activity is measured by the method of Janssen et al. (J. Med. Chem. 8, 220/1965/). Ketalar/2-(2-chlorophenyl)-2-methyl-amino-cyclohexanone/ and Hexobarbital (5-methyl-5-hexenyl-barbituric acid) were applied as reference compounds.

With `CNC1(c2ccccc2Cl)CCCCC1=O` (stereo not shown) [Ketalar, 2-(2-chlorophenyl)-2-methyl-amino-cyclohexanone] the “sleep duration compared with compound of the invention” value was “induces a longer sleep”.
